This passage reports log2 fold change results from the supplement of paper PMC10849652.

By UniProt entry, the sequences of proteins in these tests, tags left out. Where a name states a change or a piece, a line headed by the entry shows the natural chain unless it says otherwise.
UniProt O15550, whole entry, looked up: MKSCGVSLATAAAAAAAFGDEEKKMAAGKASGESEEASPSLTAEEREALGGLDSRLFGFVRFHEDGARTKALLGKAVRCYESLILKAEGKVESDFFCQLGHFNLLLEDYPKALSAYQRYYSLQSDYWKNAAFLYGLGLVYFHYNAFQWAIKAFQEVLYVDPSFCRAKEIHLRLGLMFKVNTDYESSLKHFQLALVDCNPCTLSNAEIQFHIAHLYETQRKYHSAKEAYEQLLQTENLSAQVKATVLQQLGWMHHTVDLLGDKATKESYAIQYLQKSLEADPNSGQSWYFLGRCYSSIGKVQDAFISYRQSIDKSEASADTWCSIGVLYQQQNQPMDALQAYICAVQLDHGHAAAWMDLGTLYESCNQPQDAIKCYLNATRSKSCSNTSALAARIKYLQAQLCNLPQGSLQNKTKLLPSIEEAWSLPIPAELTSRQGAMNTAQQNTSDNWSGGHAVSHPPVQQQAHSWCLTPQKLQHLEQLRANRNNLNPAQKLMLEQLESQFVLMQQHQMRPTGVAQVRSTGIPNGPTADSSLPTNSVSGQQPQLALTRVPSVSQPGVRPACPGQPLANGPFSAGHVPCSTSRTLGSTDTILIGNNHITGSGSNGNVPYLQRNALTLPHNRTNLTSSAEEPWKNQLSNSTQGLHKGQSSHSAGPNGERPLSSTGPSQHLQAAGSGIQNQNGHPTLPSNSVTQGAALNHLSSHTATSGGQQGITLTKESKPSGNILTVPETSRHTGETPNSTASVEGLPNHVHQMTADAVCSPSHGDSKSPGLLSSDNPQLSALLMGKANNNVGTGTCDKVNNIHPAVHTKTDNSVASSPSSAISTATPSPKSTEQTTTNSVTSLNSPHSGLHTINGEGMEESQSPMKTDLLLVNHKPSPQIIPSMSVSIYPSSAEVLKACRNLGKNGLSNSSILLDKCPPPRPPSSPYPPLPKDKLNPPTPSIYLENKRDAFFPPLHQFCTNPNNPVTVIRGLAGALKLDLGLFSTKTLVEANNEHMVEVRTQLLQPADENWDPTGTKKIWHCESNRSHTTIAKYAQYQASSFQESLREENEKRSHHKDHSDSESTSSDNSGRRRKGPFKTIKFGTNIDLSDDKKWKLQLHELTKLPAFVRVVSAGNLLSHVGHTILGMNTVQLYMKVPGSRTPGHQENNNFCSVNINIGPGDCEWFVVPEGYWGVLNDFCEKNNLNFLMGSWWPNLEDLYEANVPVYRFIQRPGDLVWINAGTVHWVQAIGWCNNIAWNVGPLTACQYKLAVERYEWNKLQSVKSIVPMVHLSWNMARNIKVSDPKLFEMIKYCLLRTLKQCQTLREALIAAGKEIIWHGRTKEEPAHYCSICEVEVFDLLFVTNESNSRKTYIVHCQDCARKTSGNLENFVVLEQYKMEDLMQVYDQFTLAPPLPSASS
UniProt Q6TDP4, whole entry, looked up: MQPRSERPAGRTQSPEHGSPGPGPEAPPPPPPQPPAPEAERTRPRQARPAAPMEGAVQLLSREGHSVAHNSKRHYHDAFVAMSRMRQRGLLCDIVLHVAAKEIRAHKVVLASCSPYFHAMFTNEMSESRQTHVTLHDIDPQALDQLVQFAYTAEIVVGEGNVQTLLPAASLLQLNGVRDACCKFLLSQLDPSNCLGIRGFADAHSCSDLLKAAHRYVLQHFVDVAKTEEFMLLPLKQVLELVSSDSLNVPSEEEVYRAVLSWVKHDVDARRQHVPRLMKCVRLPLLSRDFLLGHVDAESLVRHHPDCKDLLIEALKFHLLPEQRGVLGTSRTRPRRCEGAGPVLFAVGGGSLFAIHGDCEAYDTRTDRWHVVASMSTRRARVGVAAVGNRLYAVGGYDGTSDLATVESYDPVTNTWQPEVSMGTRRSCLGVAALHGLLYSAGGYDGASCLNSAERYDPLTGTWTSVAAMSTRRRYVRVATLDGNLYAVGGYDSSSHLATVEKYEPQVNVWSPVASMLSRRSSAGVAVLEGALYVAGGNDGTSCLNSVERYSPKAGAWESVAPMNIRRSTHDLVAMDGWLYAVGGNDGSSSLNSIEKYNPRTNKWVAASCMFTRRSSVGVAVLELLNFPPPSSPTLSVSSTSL
UniProt Q96MP8: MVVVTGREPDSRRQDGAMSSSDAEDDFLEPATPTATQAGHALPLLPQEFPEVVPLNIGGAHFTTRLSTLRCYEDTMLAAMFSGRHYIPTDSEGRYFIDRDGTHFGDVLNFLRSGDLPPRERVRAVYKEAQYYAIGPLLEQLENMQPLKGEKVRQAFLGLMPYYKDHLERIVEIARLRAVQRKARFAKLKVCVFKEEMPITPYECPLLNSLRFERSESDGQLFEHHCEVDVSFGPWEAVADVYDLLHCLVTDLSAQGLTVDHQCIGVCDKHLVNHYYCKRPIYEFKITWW
UniProt Q9NZM3: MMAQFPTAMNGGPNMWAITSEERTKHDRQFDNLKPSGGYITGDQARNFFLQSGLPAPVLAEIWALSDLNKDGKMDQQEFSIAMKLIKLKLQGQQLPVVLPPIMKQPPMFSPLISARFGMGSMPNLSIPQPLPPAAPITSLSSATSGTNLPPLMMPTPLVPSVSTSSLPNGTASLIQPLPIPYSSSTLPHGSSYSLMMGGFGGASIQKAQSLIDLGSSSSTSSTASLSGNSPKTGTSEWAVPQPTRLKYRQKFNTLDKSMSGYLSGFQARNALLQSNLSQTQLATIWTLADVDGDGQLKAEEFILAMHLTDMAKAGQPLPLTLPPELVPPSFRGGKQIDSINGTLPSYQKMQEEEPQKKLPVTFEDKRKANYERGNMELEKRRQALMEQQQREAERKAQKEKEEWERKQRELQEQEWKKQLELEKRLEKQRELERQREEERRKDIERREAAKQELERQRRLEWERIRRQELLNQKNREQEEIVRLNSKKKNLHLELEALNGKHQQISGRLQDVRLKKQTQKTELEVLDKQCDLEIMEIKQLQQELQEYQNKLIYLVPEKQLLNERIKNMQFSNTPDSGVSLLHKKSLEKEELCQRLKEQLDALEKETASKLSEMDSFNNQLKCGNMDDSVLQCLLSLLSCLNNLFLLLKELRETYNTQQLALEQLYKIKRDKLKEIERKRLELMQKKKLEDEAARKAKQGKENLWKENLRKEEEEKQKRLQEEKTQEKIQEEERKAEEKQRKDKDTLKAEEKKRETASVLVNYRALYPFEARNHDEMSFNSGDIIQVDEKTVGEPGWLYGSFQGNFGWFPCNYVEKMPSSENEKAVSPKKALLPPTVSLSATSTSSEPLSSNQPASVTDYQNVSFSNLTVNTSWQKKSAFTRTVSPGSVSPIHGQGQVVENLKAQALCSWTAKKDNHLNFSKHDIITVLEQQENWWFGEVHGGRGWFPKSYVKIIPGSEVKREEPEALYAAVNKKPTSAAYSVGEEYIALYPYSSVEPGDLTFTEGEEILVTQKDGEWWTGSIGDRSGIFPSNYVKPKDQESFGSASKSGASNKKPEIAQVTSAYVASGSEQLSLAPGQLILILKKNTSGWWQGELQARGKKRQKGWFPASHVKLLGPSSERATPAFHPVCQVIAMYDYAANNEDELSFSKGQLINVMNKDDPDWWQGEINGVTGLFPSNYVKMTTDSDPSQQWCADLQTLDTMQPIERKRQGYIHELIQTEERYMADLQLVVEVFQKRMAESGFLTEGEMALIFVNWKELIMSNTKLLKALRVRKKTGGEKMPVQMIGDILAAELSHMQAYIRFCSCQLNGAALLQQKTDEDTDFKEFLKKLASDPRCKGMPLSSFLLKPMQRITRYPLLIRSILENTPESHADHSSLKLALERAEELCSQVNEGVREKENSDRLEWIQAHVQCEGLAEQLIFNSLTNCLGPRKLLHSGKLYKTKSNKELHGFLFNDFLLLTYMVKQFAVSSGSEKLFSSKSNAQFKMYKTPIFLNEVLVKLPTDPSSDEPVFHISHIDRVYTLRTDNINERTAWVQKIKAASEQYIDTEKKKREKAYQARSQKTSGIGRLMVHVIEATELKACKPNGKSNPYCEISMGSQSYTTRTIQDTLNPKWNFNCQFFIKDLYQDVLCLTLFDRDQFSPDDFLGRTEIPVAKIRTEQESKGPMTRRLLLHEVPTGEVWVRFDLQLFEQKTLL
UniProt Q9Y2M5: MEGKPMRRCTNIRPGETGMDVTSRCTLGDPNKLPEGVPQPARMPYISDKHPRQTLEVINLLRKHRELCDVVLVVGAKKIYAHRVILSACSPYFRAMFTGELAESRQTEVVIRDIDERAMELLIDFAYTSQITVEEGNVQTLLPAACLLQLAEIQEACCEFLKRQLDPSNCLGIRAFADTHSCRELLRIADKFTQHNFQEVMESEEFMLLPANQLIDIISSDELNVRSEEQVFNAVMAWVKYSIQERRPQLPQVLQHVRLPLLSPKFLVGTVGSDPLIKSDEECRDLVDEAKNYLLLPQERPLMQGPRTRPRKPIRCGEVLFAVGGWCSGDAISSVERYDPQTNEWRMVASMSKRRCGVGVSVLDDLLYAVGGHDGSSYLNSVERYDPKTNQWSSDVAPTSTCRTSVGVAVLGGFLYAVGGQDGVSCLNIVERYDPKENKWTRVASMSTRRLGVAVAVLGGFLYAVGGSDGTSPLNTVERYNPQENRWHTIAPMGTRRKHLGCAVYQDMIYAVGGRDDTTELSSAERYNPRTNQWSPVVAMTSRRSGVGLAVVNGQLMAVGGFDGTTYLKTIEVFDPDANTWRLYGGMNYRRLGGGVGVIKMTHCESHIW
UniProt Q719H9: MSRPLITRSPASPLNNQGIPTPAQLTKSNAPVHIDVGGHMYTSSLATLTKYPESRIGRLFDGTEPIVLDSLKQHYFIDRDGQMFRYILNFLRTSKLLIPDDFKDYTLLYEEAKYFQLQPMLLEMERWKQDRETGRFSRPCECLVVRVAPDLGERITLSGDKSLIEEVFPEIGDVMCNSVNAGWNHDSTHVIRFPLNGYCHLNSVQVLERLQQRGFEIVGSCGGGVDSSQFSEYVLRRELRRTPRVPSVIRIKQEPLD
UniProt Q12809: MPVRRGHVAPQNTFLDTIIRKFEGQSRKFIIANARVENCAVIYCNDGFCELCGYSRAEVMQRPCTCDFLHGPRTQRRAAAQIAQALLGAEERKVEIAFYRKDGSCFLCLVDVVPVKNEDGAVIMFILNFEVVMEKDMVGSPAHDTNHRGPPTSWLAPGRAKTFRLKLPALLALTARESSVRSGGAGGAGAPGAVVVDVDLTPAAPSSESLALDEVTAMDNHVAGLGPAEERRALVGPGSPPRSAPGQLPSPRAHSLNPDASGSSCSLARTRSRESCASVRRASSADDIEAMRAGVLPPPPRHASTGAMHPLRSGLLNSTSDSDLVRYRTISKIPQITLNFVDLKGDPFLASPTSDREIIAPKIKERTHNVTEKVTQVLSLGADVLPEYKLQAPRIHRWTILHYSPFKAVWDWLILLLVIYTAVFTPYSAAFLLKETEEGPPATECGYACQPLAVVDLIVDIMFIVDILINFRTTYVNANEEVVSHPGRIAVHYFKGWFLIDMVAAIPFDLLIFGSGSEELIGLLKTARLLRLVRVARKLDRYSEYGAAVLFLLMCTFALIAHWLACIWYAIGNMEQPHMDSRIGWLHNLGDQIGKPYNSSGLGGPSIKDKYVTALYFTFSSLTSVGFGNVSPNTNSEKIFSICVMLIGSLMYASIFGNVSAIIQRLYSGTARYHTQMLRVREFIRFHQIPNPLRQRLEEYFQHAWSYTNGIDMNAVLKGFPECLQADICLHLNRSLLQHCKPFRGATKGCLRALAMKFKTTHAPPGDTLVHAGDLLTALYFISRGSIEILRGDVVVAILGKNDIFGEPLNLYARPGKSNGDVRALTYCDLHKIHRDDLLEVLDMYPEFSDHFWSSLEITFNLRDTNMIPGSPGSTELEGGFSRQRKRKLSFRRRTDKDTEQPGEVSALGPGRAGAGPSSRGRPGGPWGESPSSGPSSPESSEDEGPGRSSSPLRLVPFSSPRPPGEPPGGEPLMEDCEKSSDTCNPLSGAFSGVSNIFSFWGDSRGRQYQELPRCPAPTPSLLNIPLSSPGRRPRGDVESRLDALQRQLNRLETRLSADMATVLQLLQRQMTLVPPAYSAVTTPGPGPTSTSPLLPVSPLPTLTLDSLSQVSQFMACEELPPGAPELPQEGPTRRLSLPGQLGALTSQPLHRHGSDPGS

What all share (test): log2 fold change, soluble protein after heating vs DMSO (PISA); higher = thermal stabilisation; K562 cells, 10 uM, 30 min; active = over 0.2 and 3.5 SD of the protein, either way, in both replicates (recomputed)
Compound in test [1]: NC(=O)c1cnc(N[C@@H]2CCCC[C@@H]2N)nc1Nc1cccc(-n2nccn2)c1
The method in brief:
(§1)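 Soluble protein was defined as the supernatant after 21,000xg for 90 min. It came from K562 cells at 2×10^6 cells/mL given 10 μM compound for 30 min, heated in aliquots for 3 min across 48°C-58°C, pooled, and extracted in PBS with 0.5% NP-40 at 4°C, and was quantified by TMTpro 16plex LC-MS/MS with equalised channel sums. Thermal stability against control samples, from duplicates, is reported as log2 fold change.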

Compound in test [2]: NCC(=O)Nc1ccc(-n2nc(C(F)(F)F)cc2-c2ccc3c(ccc4ccccc43)c2)cc1
The method in brief:
as §1

Compound in test [3]: O=C1NC(=O)C(c2cnc3ccccn23)=C1c1cn2c3c(cc(F)cc13)CN(C(=O)N1CCCCC1)CC2
The method in brief:
as §1

Compound in test [4]: NC1(c2ccc(-c3nc4ccn5c(=O)[nH]nc5c4cc3-c3ccccc3)cc2)CCC1
The method in brief: as §1

Compound in another test: O=C(CCCCCCC(=O)Nc1ccccc1)NO [vorinostat]
The method in brief:
as §1

Compound in another test: O=C(O)c1ccc2c(c1)nc(Nc1cccc(Cl)c1)c1ccncc12 [silmitasertib]
The method in brief:
as §1

Compound in a further test: O=C(CCCCCCNC(=O)c1cnc(N(c2ccccc2)c2ccccc2Cl)nc1)NO [citarinostat]
The method in brief: as §1

Compound in test [5]: c1cc(OCCN2CCCCC2)cc(-c2n[nH]c3ccc(-c4nnc[nH]4)cc23)c1
The method in brief: as §1

Compound in another test: c1cn2cc(-c3ccc4cn[nH]c4c3)nc(Nc3ccc(N4CCOCC4)cc3)c2n1 [entospletinib]
The method in brief:
as §1

Some of the results follow.

KDM6A (UniProt O15550): the log2 fold change is inactive: -0.035 in test [1], inactive: -0.047 in test [2] and inactive: 0.165 in test [3].

On to KRT10, A0A1B0GVI3, for which the log2 fold change in test [4] is inactive: -0.014; in the test with vorinostat it was inactive: 0.066; with silmitasertib it was inactive: -0.038.

Consider KLHL17 (UniProt Q6TDP4), for which the log2 fold change in [3] was inactive: -0.072.

With KCTD7 (UniProt Q96MP8), the log2 fold change is inactive: -0.091 in [4], inactive: -0.086 in the test with vorinostat and inactive: 0.074 in the test with silmitasertib.

ITSN2 (UniProt Q9NZM3): the log2 fold change with vorinostat is inactive: -0.07; with citarinostat, inactive: 0.143; in test [5], inactive: -0.129; in the test with entospletinib it was inactive: 0.003.

Turning to KLHL20 (UniProt Q9Y2M5), the log2 fold change was inactive: -0.156 in [1]; inactive: 0.02 in test [4]; inactive: -0.103 in test [2]; inactive: 0.122 with vorinostat; inactive: 0.07 with silmitasertib.

Turning to KDM3A (UniProt Q9Y4C1), the log2 fold change is inactive: 0.03 with vorinostat, inactive: -0.142 with citarinostat, inactive: 0.035 in [5] and inactive: 0.061 in the test with entospletinib.

KCTD1 (UniProt Q719H9): the log2 fold change in test [2] is inactive: -0.037; in [3], inactive: -0.099.

In the case of KCNH2 (UniProt Q12809), the log2 fold change is inactive: -0.25 in [2], inactive: 0.286 with silmitasertib and inactive: 0.177 in [3].

For the target KIAA0754 (UniProt O94854), the log2 fold change in test [3] was inactive: 0.293.
